Assay results published in US7696233B2, “Method for controlling particular insect pests by applying anthranilamide compounds” (E. I. du Pont de Nemours and Company, priority 2001, dated 2010).
Some of these results come from one statement about several compounds together.

Legend:
Type in all cases: in vivo
[1] = tested on: fall armyworm (Spodoptera frugiperda); assay: Test A: control of fall armyworm, foliar spray on corn; settings: sprayed at 50 ppm, visually assessed after 6 days
[2] = tested on: tobacco budworm (Heliothis virescens); assay: Test B: control of tobacco budworm, foliar spray on cotton; settings: sprayed at 50 ppm, visually rated after 6 days
[3] = tested on: beet armyworm (Spodoptera exigua); assay: Test C: control of beet armyworm, foliar spray on corn; settings: sprayed at 50 ppm, visually rated after 6 days

Measured: feeding damage (excellent levels of plant protection)

Cc1cc(Br)cc(C(=O)NC(C)C)c1NC(=O)c1cc(C(F)(F)F)nn1-c1ccccc1F [Compound 168]
≤ 10%: all assays above

CC(C)NC(=O)c1cccc(Cl)c1NC(=O)c1cc(C(F)(F)F)nn1-c1cnccn1 [Compound 176]
≤ 10%: all assays above

Cc1cc(Br)cc(C(=O)NC(C)(C)C)c1NC(=O)c1cc(C(F)(F)F)nn1-c1ccccc1Cl [Compound 177]
≤ 10%: all assays above

Cc1cccc(C(=O)NC(C)C)c1NC(=O)c1cc(C(F)(F)F)nn1-c1ccccc1I [Compound 182]
≤ 10%: all assays above

CC(C)NC(=O)c1cccc(Cl)c1NC(=O)c1cc(C(F)(F)F)nn1-c1ccccc1I [Compound 183]
≤ 10%: all assays above

C#Cc1ccccc1-n1nc(C(F)(F)F)cc1C(=O)Nc1c(C)cccc1C(=O)NC(C)C [Compound 184]
≤ 10%: all assays above

C#Cc1ccccc1-n1nc(C(F)(F)F)cc1C(=O)Nc1c(Cl)cccc1C(=O)NC(C)C [Compound 185]
≤ 10%: all assays above

Cc1cccc(C(=O)NC(C)C)c1NC(=O)c1cc(C(F)(F)F)nn1-c1ccc(F)cc1Cl [Compound 186]
≤ 10%: all assays above

CC(C)NC(=O)c1cccc(Cl)c1NC(=O)c1cc(C(F)(F)F)nn1-c1ccc(F)cc1Cl [Compound 187]
≤ 10%: all assays above

Cc1cccc(C(=O)NC(C)C)c1NC(=O)c1cc(C(F)(F)F)nn1-c1c(C)cccc1C [Compound 189]
≤ 10%: all assays above

Cc1cccc(C)c1-n1nc(C(F)(F)F)cc1C(=O)Nc1c(Cl)cccc1C(=O)NC(C)C [Compound 190]
≤ 10%: all assays above

Cc1cccc(C(=O)NC(C)C)c1NC(=O)c1cc(C(F)(F)F)nn1-c1c(Cl)cc(C#N)cc1Cl [Compound 191]
≤ 10%: all assays above

Cc1cccc(C(=O)NC(C)C)c1NC(=O)c1cc(C(F)(F)F)nn1-c1ccccc1C#N [Compound 192]
≤ 10%: all assays above

Cc1cccc(C(=O)NC(C)C)c1NC(=O)c1cc(C(F)(F)F)nn1-c1ccc(F)cc1Br [Compound 195]
≤ 10%: all assays above

CC(C)NC(=O)c1cccc(Cl)c1NC(=O)c1cc(C(F)(F)F)nn1-c1ccc(F)cc1Br [Compound 196]
≤ 10%: all assays above

Cc1cccc(C(=O)NC(C)C)c1NC(=O)c1cc(C(F)(F)F)nn1-c1nccnc1C [Compound 197]
≤ 10%: all assays above

CC(C)NC(=O)c1cc(Br)cc(Br)c1NC(=O)c1cc(C(F)(F)F)nn1-c1ccccc1Cl [Compound 207]
≤ 10%: all assays above

CC(C)NC(=O)c1cccc(Br)c1NC(=O)c1cc(Br)nn1-c1ccccc1Cl [Compound 208]
≤ 10%: all assays above

CNC(=O)c1cccc(C)c1NC(=O)c1cc(Br)nn1-c1ccccc1Cl [Compound 209]
≤ 10%: all assays above

CC(C)(C)NC(=O)c1cccc(Cl)c1NC(=O)c1cc(Br)nn1-c1ccccc1Cl [Compound 210]
≤ 10%: all assays above

CCNC(=O)c1cccc(C)c1NC(=O)c1cc(Br)nn1-c1ccccc1Cl [Compound 211]
≤ 10%: all assays above

Cc1cccc(C(=O)NC(C)(C)C)c1NC(=O)c1cc(Br)nn1-c1ccccc1Cl [Compound 212]
≤ 10%: all assays above

Cc1nccnc1-n1nc(C(F)(F)F)cc1C(=O)Nc1c(Cl)cccc1C(=O)NC(C)C [Compound 221]
≤ 10%: all assays above

Cc1cccc(C(=O)NC(C)C)c1NC(=O)c1cc(C(F)(F)F)nn1-c1cccnc1Cl [Compound 224]
≤ 10%: all assays above

Cc1cc(Br)cc(C(=O)NC(C)(C)C)c1NC(=O)c1cc(Br)nn1-c1ccccc1Cl [Compound 229]
≤ 10%: all assays above

CNC(=O)c1cc(Br)cc(C)c1NC(=O)c1cc(Br)nn1-c1ccccc1Cl [Compound 230]
≤ 10%: all assays above

CCNC(=O)c1cc(Br)cc(C)c1NC(=O)c1cc(Br)nn1-c1ccccc1Cl [Compound 231]
≤ 10%: all assays above

Cc1cc(Br)cc(C(=O)NC(C)C)c1NC(=O)c1cc(Br)nn1-c1ccccc1Cl [Compound 232]
≤ 10%: all assays above

C#CCNC(=O)c1cccc(C)c1NC(=O)c1cc(C(F)(F)F)nn1-c1ccccc1F [Compound 234]
≤ 10%: all assays above

Cc1cccnc1-n1nc(C(F)(F)F)cc1C(=O)Nc1c(Cl)cccc1C(=O)NC(C)C [Compound 237]
≤ 10%: all assays above

Cc1cccc(C(=O)N(C)C)c1NC(=O)c1cc(C(F)(F)F)nn1-c1ccccc1Cl [Compound 244]
≤ 10%: all assays above

Cc1cccc(C(=O)NC(C)C)c1NC(=O)c1cc(C(F)(F)F)nn1-c1c(C)cccc1Cl [Compound 246]
≤ 10%: all assays above

Cc1cccc(Cl)c1-n1nc(C(F)(F)F)cc1C(=O)Nc1c(Cl)cccc1C(=O)NC(C)C [Compound 247]
≤ 10%: all assays above

CC(C)NC(=O)c1cccc(Cl)c1NC(=O)c1cc(C(F)(F)F)nn1-c1ccc(C#N)cc1Cl [Compound 250]
≤ 10%: all assays above

Cc1cc(F)ccc1-n1nc(C(F)(F)F)cc1C(=O)Nc1c(C)cccc1C(=O)NC(C)C [Compound 257]
≤ 10%: all assays above

Cc1cc(F)ccc1-n1nc(C(F)(F)F)cc1C(=O)Nc1c(Cl)cccc1C(=O)NC(C)C [Compound 258]
≤ 10%: all assays above

Cc1cccc(C(=O)NC(C)C)c1NC(=O)c1cc(C(F)(F)F)nn1-c1ncccc1C#N [Compound 267]
≤ 10%: all assays above

Cc1cccc(C(=O)N(C)C)c1NC(=O)c1cc(C(F)(F)F)nn1-c1nccc2cc(Cl)ccc12 [Compound 270]
≤ 10%: all assays above

Cc1cccc(C(=O)NC(C)C)c1NC(=O)c1cc(C(F)(F)F)nn1-c1c(C)cc(C#N)cc1Cl [Compound 271]
≤ 10%: all assays above
